These are yes or no findings as the source states them, for the method shown. A result given as binding can be weak or reduced; the word gives no strength.
Assays:
[1] = target: cyno MAdCAM protein (cyno); assay: ELISA
[2] = target: cyno MAdCAM protein (cyno); assay: Octet

B1: MAdCAM Antibody Table 2 Clone 75 (antibody, human IgG1, V domains shown)
VH: EVQLLESGGGLVQPGGSLRLSCAASGFTFSDFWMHWVRQAPGKGLEWISYISGDSGYTNYADSVKGRFTISRDNSKNTLYLQMNSLRAEDTAVYYCARDRPYYYYMDVWGKGTTVTVSS
VL: DIQMTQSPSSLSASVGDRVTITCRASQSVSRSLAWYQQKPGKAPKLLIYAASSLQSGVPSRFSGSGSGTDFTLTISSLQPEDFATYYCQQYKSYPVTFGQGTKVEIK
binding [1]: binds
binding [2]: binds

From patent publication US20210206856A1
